Measurements published in PMC3171469, “Multiple ETS Family Proteins Regulate PF4 Gene Expression by Binding to the Same ETS Binding Site”.
For at least one entry, the source does not settle the construct or the ends of the probe. A negative result means that nothing was seen under these conditions.

Key:
[1] = test system: GABPalpha + GABPbeta; assay: EMSA; conditions: 2 mM HEPES-NaOH pH 7.9, 5 mM KCl, 2% glycerol, 0.01 mM EDTA, 0.25 mM DTT, 0.1 mg/ml BSA, 5 ng/ul poly dI-dC, 50 fmol probe, 40 min at 4 C, 4% native gel, 0.5x TBE, protein translated in vitro
[2] = test system: GABPalpha + GABPgamma; assay: EMSA; conditions: 2 mM HEPES-NaOH pH 7.9, 5 mM KCl, 2% glycerol, 0.01 mM EDTA, 0.25 mM DTT, 0.1 mg/ml BSA, 5 ng/ul poly dI-dC, 50 fmol probe, 40 min at 4 C, 4% native gel, 0.5x TBE, protein translated in vitro
[3] = mix of GABPalpha, beta and gamma, label: 32P as probe, unlabelled as competitor

Sequence | binding result [1, 3] | binding result [2, 3] | binding result ([1]; band alpha/beta, label: 32P) | binding result ([2]; band alpha/gamma, label: 32P)
CCCGGGTCGGTGGACTGGGCTG (double strand) [-51 ETSmut] | no binding | no binding |  | 
CCCGGGTTTCCGGACTGGGCTG (double strand) [-51 ETS] |  |  | binds | binds
